Test results: article doi:10.1101/432989 (bioRxiv, 2018)

B1: MazE-mt1 in pTRG (bacterial two-hybrid prey) (protein, UniProt P0CL61 1-76)
chain: MKLSVSLSDDDVAILDAYVKRAGLPSRSAGLQHAIRVLRYPTLEDDYANAWQEWSAAGDTDAWEQTVGDGVGDAPR
B2: MazE-mt9 in pTRG (bacterial two-hybrid prey) (protein, UniProt P9WJ85 1-77)
chain: MSTSTTIRVSTQTRDRLAAQARERGISMSALLTELAAQAERQAIFRAEREASHAETTTQAVRDEDREWEGTVGDGLG

Target: MazF-mt9 in pBT (bacterial two-hybrid bait) (Mycobacterium tuberculosis)
Test: two-hybrid

| Binder | binding |
| --- | --- |
| B1 | binds |
| B2 | binds |

Results are given in words; binding and its absence hold for the method and conditions named. Binding calls can cover weak binding; strength is not graded here.
